# In the supplement of paper PMC8728848:
# This is one part of the list.
# How the values were obtained:
# Assay in all cases: glycan array binding signal (z-score within array); higher = stronger binding
# Settings in all cases: glycan notation: IUPAC condensed, linker removed
# [1] = biological target: Neu5Ac(a2-8)Neu5Ac
# Method in brief: (§1)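 Glycan array binding is given as a within-array Z-score, which can be read as non-binding when negative. The arrays, 3228 of them, came from the Consortium for Functional Glycomics database and were retained only where the protein sequence was available. Z-scores were averaged across arrays of the same protein sequence at different concentrations or buffers and across linkers.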
# [2] = biological target: Neu5Ac(a2-8)Neu5Ac(a2-3)Gal(b1-3)GalNAc(b1-4)[Neu5Ac(a2-3)]Gal(b1-4)Glc
# Method in brief: as §1
# [3] = biological target: Neu5Ac(a2-8)Neu5Ac(a2-3)Gal(b1-3)GalNAc(b1-4)[Neu5Ac(a2-8)Neu5Ac(a2-3)]Gal(b1-4)Glc
# Method in brief: as §1
# [4] = biological target: Neu5Ac(a2-8)Neu5Ac(a2-3)Gal(b1-4)Glc
# Method in brief: as §1
# [5] = biological target: Neu5Ac(a2-8)Neu5Ac(a2-3)Gal(b1-4)GlcNAc
# Method in brief: as §1
# [6] = biological target: Neu5Ac(a2-8)Neu5Ac(a2-3)[Gal(b1-3)GalNAc(b1-4)]Gal(b1-4)Glc
# Method in brief: as §1
# [7] = biological target: Neu5Ac(a2-8)Neu5Ac(a2-3)[GalNAc(b1-4)]Gal(b1-4)Glc
# Method in brief: as §1
# [8] = biological target: Neu5Ac(a2-8)Neu5Ac(a2-8)Neu5Ac
# Method in brief: as §1
# [9] = biological target: Neu5Ac(a2-8)Neu5Ac(a2-8)Neu5Ac(a2-3)Gal(b1-4)Glc
# Method in brief: as §1
# [10] = biological target: Neu5Ac(a2-8)Neu5Ac(a2-8)Neu5Ac(a2-3)[Gal(b1-3)GalNAc(b1-4)]Gal(b1-4)Glc
# Method in brief: as §1
# [11] = biological target: Neu5Ac(a2-8)Neu5Ac(a2-8)Neu5Ac(a2-3)[GalNAc(b1-4)]Gal(b1-4)Glc
# Method in brief: as §1
# [12] = biological target: Neu5Ac(a2-8)Neu5Ac(a2-8)Neu5Ac(a2-8)Neu5Ac(a2-3)[GalNAc(b1-4)]Gal(b1-4)Glc
# Method in brief: as §1
# [13] = biological target: Neu5Ac(a2-8)Neu5Gc(a2-3)Gal(b1-4)GlcNAc
# Method in brief: as §1
# [14] = biological target: Neu5Ac(b2-6)Gal(b1-4)GlcNAc
# Method in brief: as §1
# [15] = biological target: Neu5Ac(b2-6)GalNAc
# Method in brief: as §1
# [16] = biological target: Neu5Ac9Ac(a2-3)Gal(b1-3)GlcNAc
# Method in brief: as §1
# [17] = biological target: Neu5Ac9Ac(a2-3)Gal(b1-4)GlcNAc
# Method in brief: as §1
# [18] = biological target: Neu5Ac9Ac(a2-6)Gal(b1-4)GlcNAc
# Method in brief: as §1
# [19] = biological target: Neu5Gc(a2-3)Gal(b1-3)GlcNAc
# Method in brief: as §1
# [20] = biological target: Neu5Gc(a2-3)Gal(b1-3)[Fuc(a1-4)]GlcNAc
# Method in brief: as §1
# [21] = biological target: Neu5Gc(a2-3)Gal(b1-4)Glc
# Method in brief: as §1
# [22] = biological target: Neu5Gc(a2-3)Gal(b1-4)GlcNAc
# Method in brief: as §1
# [23] = biological target: Neu5Gc(a2-3)Gal(b1-4)GlcNAc(b1-3)Gal(b1-4)GlcNAc(b1-2)Man(a1-3)[Neu5Gc(a2-3)Gal(b1-4)GlcNAc(b1-3)Gal(b1-4)GlcNAc(b1-2)Man(a1-6)]Man(b1-4)GlcNAc(b1-4)GlcNAc
# Method in brief: as §1
# [24] = biological target: Neu5Gc(a2-3)Gal(b1-4)[Fuc(a1-3)]GlcNAc
# Method in brief: as §1
# [25] = biological target: Neu5Gc(a2-6)Gal(b1-4)GlcNAc
# Method in brief: as §1
# [26] = biological target: Neu5Gc(a2-6)GalNAc
# Method in brief: as §1
# [27] = biological target: Neu5Gc(a2-8)Neu5Ac(a2-3)Gal(b1-4)GlcNAc
# Method in brief: as §1
# [28] = biological target: Neu5Gc(a2-8)Neu5Gc(a2-3)Gal(b1-4)GlcNAc
# Method in brief: as §1
# [29] = biological target: Neu5Gc(a2-8)Neu5Gc(a2-3)Gal(b1-4)GlcNAc(b1-3)Gal(b1-4)GlcNAc
# Method in brief: as §1
# [30] = biological target: Neu5Gc(a2-8)Neu5Gc(a2-6)Gal(b1-4)GlcNAc
# Method in brief: as §1
# [31] = biological target: Neu5Gc(b2-6)Gal(b1-4)GlcNAc
# Method in brief: as §1
binder,measurement,setting,value
Pwp7 (Candida glabrata) (protein) MGSSHHHHHHSSGLVPRGSHMASKNPVDFPNLCQYPNLDGAVAGFDTEIYNADPSILINFSLWPILQFPKEWHKTIGRAITTQTNFKLPASDTTLFGVSIPTQNILIEFRGYFIPPKSGTYTFALYLTDDGSAMFLGNDAAFPCGNITSWSNPTNDQVSVSDYDPKKKTLTVYMVAGVAYPLRIAYYNREKGGSLTASFVDPDGLTHSDWNGYIWTLPSCDNCKYS,glycan array binding signal (z-score),[1],0.955
same,glycan array binding signal (z-score),[2],-0.085
same,glycan array binding signal (z-score),[3],-0.33
same,glycan array binding signal (z-score),[4],-0.431
same,glycan array binding signal (z-score),[5],-0.648
same,glycan array binding signal (z-score),[6],-0.208
same,glycan array binding signal (z-score),[7],0.429
same,glycan array binding signal (z-score),[8],-0.343
same,glycan array binding signal (z-score),[9],-0.053
same,glycan array binding signal (z-score),[10],0.603
same,glycan array binding signal (z-score),[11],0.88
same,glycan array binding signal (z-score),[12],0.069
same,glycan array binding signal (z-score),[13],-0.328
same,glycan array binding signal (z-score),[14],-0.537
same,glycan array binding signal (z-score),[15],-0.387
same,glycan array binding signal (z-score),[16],-0.436
same,glycan array binding signal (z-score),[17],-1.15
same,glycan array binding signal (z-score),[18],-0.662
same,glycan array binding signal (z-score),[19],-0.313
same,glycan array binding signal (z-score),[20],-1.13
same,glycan array binding signal (z-score),[21],-0.406
same,glycan array binding signal (z-score),[22],-0.381
same,glycan array binding signal (z-score),[23],0.719
same,glycan array binding signal (z-score),[24],-0.557
same,glycan array binding signal (z-score),[25],-0.996
same,glycan array binding signal (z-score),[26],-1.42
same,glycan array binding signal (z-score),[27],-0.088
same,glycan array binding signal (z-score),[28],-0.224
same,glycan array binding signal (z-score),[29],-0.362
same,glycan array binding signal (z-score),[30],-0.163
same,glycan array binding signal (z-score),[31],-0.407

# Part of the list above, reformatted:
binder	measurement	setting	value
Pwp7 (Candida glabrata) (protein) MGSSHHHHHHSSGLVPRGSHMASKNPVDFPNLCQYPNLDGAVAGFDTEIYNADPSILINFSLWPILQFPKEWHKTIGRAITTQTNFKLPASDTTLFGVSIPTQNILIEFRGYFIPPKSGTYTFALYLTDDGSAMFLGNDAAFPCGNITSWSNPTNDQVSVSDYDPKKKTLTVYMVAGVAYPLRIAYYNREKGGSLTASFVDPDGLTHSDWNGYIWTLPSCDNCKYS	glycan array binding signal (z-score)	[3]	-0.33
same	glycan array binding signal (z-score)	[26]	-1.42
